Data reported in patent US10254283B2, “Biomarker for MELK activity and methods of using same” (Dana-Farber Cancer Institute, Inc., priority 2013, dated 2019).
At least one structure is not confirmed: it was looked up by name or label, or the drawing left a doubt.

System: phosphorylation of eIF4B at S406
Assay: Immunoblotting of eIF4B S406 phosphorylation in drug-treated mitotic cells
Type: cell-based, human
Details: mitotic cells treated for 30 min, mTOR inhibitors versus MELK inhibitor (FIG. 6)
Description: MDA-MB-468 cells stably expressing tetracycline-inducible (tet-on) small hairpin MELK (shMELK) in the presence or absence of doxycycline were harvested through treatment of nocodazole, and subjected to immunoblotting. […] Mitotic MDA-MB-468 cells were treated for 30 min with vehicle or 200 nM OTSSP167, a MELK inhibitor (Chung et al. (2012) Oncotarget 3:1629-1640). Lysates were used for immunoblotting.
For treatment with nocodazole, cells were refreshed with medium containing nocodazole (200 ng/ml). Twenty hours after treatment, floating mitotic cells were harvested by gental shake-off. For drug treatment, cells were seeded in multi-well plate, in the presence of OTSSP167 (ChemExpress, HY15512; 10 mM stock made in DMSO).
Cells were harvested and lysed with RIPA buffer (25 mM Tris, pH 7.4, 150 mM NaCl, 1% Nonidet P-40, 0.5% sodium deoxycholate, and 0.1% sodium dodecyl sulfate) supplemented with protease inhibitors cocktail (Roche) and phosphatase inhibitors cocktail (Thermo Scientific). Cleared lysates were analyzed for protein concentration using a BCA kit (Thermo Scientific). Equal amount of protein (10-20 μg) was resolved on SDS-PAGE, and was subsequently transferred onto a nitrocellulose or polyvinylidene difluoride membrane (Amersham). The membrane was blocked with 5% non-fat milk and was then incubated with primary antibodies overnight at 4° C. […]

For `CO[C@H]1C[C@@H]2CC[C@@H](C)[C@@](O)(O2)C(=O)C(=O)N2CCCC[C@H]2C(=O)O[C@H]([C@H](C)C[C@@H]2CC[C@@H](O)[C@H](OC)C2)CC(=O)[C@H](C)/C=C(\C)[C@@H](O)[C@@H](OC)C(=O)[C@H](C)C[C@H](C)/C=C/C=C/C=C/1C` [Rapamycin], the “phosphorylation of eIF4B at S406” value was “not mTOR inhibition” and the “phosphorylation of eIF4B at S406” value (listed as rapamycin) was “do not produce the same results”.
